Source: patent US20240218055A1 (US Dept. of Health and Human Services, published 2024)
These are yes or no findings as the source states them, for the method shown. Some results given as binding are weak or reduced against the parent protein; the word gives no strength.

The chains behind the UniProt entries cited, without tags or fusion partners. Where a name states a change or a piece, a line headed by the entry shows the natural chain unless it says otherwise.
UniProt P08669: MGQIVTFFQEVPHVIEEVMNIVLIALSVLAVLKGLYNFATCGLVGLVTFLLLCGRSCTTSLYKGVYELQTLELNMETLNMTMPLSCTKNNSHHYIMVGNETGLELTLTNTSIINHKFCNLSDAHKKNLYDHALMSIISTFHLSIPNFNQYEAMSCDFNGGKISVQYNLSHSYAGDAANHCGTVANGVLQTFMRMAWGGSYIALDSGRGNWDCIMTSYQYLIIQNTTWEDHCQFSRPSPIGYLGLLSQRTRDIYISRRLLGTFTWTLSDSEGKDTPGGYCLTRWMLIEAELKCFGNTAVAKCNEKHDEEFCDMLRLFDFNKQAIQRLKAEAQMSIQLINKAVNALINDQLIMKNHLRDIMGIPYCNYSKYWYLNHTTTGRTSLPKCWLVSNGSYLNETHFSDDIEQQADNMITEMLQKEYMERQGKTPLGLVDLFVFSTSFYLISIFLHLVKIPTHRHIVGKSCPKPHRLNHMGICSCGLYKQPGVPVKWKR

B1: shark VNAR A1 (VNAR)
VNAR: ARVDQTPQTITKETGESLTINCVPPDSNCALADTYWYRKKSGSTNEESISKGGRYVPTVNSGSKSFILRINDLRVADSGTYRCKVSCYAAAYYGQQLERLYDVYGGGTAVTVN
B2: shark VNAR A10 (VNAR)
chain: ARVDQTPQTITKETGESLTITCILRDSQCALSPTYWYHKKSGSTKPERIYKGGRYVETVNSGSKSFSLRINDLTVEDSGTFFCKVSGWYAYSCRLEPDGYYDVYGGGTVVTVN
B3: shark VNAR B8 (VNAR)
VNAR: ARVDQTPQTVTKETGESLTINCVLRDSNCALPSTYWYRKKSGSTNEENISKGGRYVETVNSGSKSFSLRINDLRPEDSGTYRCKVHGLPLDCIPARGLELNWREDVNGGGTAVTVN
B4: shark VNAR B10 (VNAR)
VNAR: ARVDQTPQTITKETGESLTINCVLRDSNCPLSSTFWYRADAGSLNEENISKGGRYVETVNSGSKSFSLRINDLTTEDSGTYRCKVAGLPLDCIPARGLELNWREDVYGGGTAVTVN

Biological target: LASV GP1 subunit protein (Lassa virus) (UniProt P08669)
Assay: BLI, GP1 subunit protein

Binder	binding
B1	binds
B2	binds
B3	binds
B4	binds
